These are yes or no findings as the source states them, for the method shown. Binding seen in cells or lysates may run through a third protein. Some entries that bind do so weakly or less than the wild type.

Experiment [1] has as its target T1, ATF2 (human (endogenous in LoVo and SW480)) (UniProt P15336).
T1 sequence: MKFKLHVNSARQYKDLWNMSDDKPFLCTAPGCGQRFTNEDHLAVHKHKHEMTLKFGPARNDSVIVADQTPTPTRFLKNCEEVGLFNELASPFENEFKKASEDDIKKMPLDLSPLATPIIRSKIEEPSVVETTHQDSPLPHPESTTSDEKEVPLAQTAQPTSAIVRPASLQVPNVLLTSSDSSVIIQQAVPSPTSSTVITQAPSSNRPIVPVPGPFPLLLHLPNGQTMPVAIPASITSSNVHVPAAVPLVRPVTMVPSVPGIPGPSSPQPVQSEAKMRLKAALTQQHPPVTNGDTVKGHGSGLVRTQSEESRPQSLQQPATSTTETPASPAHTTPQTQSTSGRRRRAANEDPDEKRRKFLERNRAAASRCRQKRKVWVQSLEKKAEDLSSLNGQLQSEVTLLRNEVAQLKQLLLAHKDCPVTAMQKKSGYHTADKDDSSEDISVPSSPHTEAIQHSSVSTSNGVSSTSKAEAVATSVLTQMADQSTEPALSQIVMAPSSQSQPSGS
The experiment is described as follows: co-IP; whole cell lysates of LoVo and SW480 cells; supernatant incubated with anti-CREB5 or anti-ATF2 antibody or IgG control overnight at 4 °C, protein A/G agarose beads 2 h at 4 °C, western blot of the immunoprecipitates; endogenous proteins. On the technique in general: A western blot detects proteins with antibodies after separation by electrophoresis.

The target in experiment [2] is T2, CREB5 (cAMP responsive element binding protein 5) (human (endogenous in LoVo and SW480)) (UniProt Q02930).
T2 sequence: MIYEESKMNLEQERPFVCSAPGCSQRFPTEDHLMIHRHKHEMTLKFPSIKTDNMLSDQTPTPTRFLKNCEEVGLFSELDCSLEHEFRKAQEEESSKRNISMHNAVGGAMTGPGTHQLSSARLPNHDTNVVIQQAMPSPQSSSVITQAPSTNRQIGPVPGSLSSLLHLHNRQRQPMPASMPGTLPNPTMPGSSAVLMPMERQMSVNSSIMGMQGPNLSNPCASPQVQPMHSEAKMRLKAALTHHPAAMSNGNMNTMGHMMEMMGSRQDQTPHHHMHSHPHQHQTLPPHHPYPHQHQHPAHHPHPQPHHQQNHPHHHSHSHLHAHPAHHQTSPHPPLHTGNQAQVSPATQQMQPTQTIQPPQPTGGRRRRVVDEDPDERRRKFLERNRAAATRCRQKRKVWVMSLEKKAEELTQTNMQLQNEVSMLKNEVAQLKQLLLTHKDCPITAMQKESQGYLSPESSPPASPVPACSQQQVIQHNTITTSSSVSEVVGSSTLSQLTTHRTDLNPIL
The experiment is described as above.

B1: CREB5 (cAMP responsive element binding protein 5) (protein, UniProt Q02930 1-508)
chain: MIYEESKMNLEQERPFVCSAPGCSQRFPTEDHLMIHRHKHEMTLKFPSIKTDNMLSDQTPTPTRFLKNCEEVGLFSELDCSLEHEFRKAQEEESSKRNISMHNAVGGAMTGPGTHQLSSARLPNHDTNVVIQQAMPSPQSSSVITQAPSTNRQIGPVPGSLSSLLHLHNRQRQPMPASMPGTLPNPTMPGSSAVLMPMERQMSVNSSIMGMQGPNLSNPCASPQVQPMHSEAKMRLKAALTHHPAAMSNGNMNTMGHMMEMMGSRQDQTPHHHMHSHPHQHQTLPPHHPYPHQHQHPAHHPHPQPHHQQNHPHHHSHSHLHAHPAHHQTSPHPPLHTGNQAQVSPATQQMQPTQTIQPPQPTGGRRRRVVDEDPDERRRKFLERNRAAATRCRQKRKVWVMSLEKKAEELTQTNMQLQNEVSMLKNEVAQLKQLLLTHKDCPITAMQKESQGYLSPESSPPASPVPACSQQQVIQHNTITTSSSVSEVVGSSTLSQLTTHRTDLNPIL
In the case of B1, the binding entry in experiment [1] is “binds”.

B2: ATF2 (protein, UniProt P15336 1-505)
chain: MKFKLHVNSARQYKDLWNMSDDKPFLCTAPGCGQRFTNEDHLAVHKHKHEMTLKFGPARNDSVIVADQTPTPTRFLKNCEEVGLFNELASPFENEFKKASEDDIKKMPLDLSPLATPIIRSKIEEPSVVETTHQDSPLPHPESTTSDEKEVPLAQTAQPTSAIVRPASLQVPNVLLTSSDSSVIIQQAVPSPTSSTVITQAPSSNRPIVPVPGPFPLLLHLPNGQTMPVAIPASITSSNVHVPAAVPLVRPVTMVPSVPGIPGPSSPQPVQSEAKMRLKAALTQQHPPVTNGDTVKGHGSGLVRTQSEESRPQSLQQPATSTTETPASPAHTTPQTQSTSGRRRRAANEDPDEKRRKFLERNRAAASRCRQKRKVWVQSLEKKAEDLSSLNGQLQSEVTLLRNEVAQLKQLLLAHKDCPVTAMQKKSGYHTADKDDSSEDISVPSSPHTEAIQHSSVSTSNGVSSTSKAEAVATSVLTQMADQSTEPALSQIVMAPSSQSQPSGS
Take B2: the binding result in experiment [2] is on record as “binds”.
